## Results from one PubChem assay

Data taken from PubChem BioAssay AID504749, deposited by NCATS (2011).

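A panel of P. falciparum strains inside erythrocytes is exposed to compounds for three days, then a DNA-binding dye reports the amount of parasite DNA.
Each compound was titrated across a series from about 0.000037 to 29 µM.
The number is the fitted AC50, the concentration giving a half-maximal change in signal; a lower value means higher potency, whether the curve shows a decrease or an increase.
Calls follow the curve class and fit quality: every row here is inconclusive, covering signal-raising curves and weak, poorly fitted, partial or highest-dose-only inhibition curves.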

Values are in µM.
Every entry below has the call inconclusive.
Only part of the assay is shown, chiefly results filed as inconclusive.
Potencies fitted to partial, single-point or poorly fitting curves are rough.

Compound	condition	Potency (µM)	curve
CN(C)CCC=C1c2ccccc2C(C)(C)c2ccccc21	CP260	10	inhibitor, single point
CN(C)CCC=C1c2ccccc2C(C)(C)c2ccccc21	CP268	6.746	inhibitor, partial curve
CN(C)CCC=C1c2ccccc2C(C)(C)c2ccccc21	CP265	5.012	inhibitor, partial curve
CN(C)CCC=C1c2ccccc2C(C)(C)c2ccccc21	CP250	17.78	inhibitor, single point
CN(C)CCC=C1c2ccccc2C(C)(C)c2ccccc21	CP266	19.01	inhibitor, single point
CN(C)CCC=C1c2ccccc2C(C)(C)c2ccccc21	C2A	14.13	inhibitor, single point
CN(C)CCC=C1c2ccccc2C(C)(C)c2ccccc21	P94_40	12.59	inhibitor, partial curve, poor fit
CN(C)CCC=C1c2ccccc2C(C)(C)c2ccccc21	PAD	17.78	inhibitor, single point
CN(C)CCC=C1c2ccccc2C(C)(C)c2ccccc21	CP305	13.46	inhibitor, partial curve, poor fit
CN(C)CCC=C1c2ccccc2C(C)(C)c2ccccc21	CP237	8.912	inhibitor, partial curve
CN(C)CCC=C1c2ccccc2C(C)(C)c2ccccc21	AA1029	10	inhibitor, partial curve
CN(C)CCC=C1c2ccccc2C(C)(C)c2ccccc21	CP203	4.776	inhibitor, partial curve, poor fit
CN(C)CCC=C1c2ccccc2C(C)(C)c2ccccc21	CP201	7.569	inhibitor, partial curve, poor fit
CN(C)CCC=C1c2ccccc2C(C)(C)c2ccccc21	CP185	8.912	inhibitor, single point
CN(C)CCC=C1c2ccccc2C(C)(C)c2ccccc21	P93_24	7.943	inhibitor, partial curve, poor fit
CN(C)CCC=C1c2ccccc2C(C)(C)c2ccccc21	CP215	13.46	inhibitor, single point
CN(C)CCC=C1c2ccccc2C(C)(C)c2ccccc21	TAB165	11.22	inhibitor, partial curve
CN(C)CCC=C1c2ccccc2C(C)(C)c2ccccc21	Dd2	5.012	inhibitor, partial curve
CN(C)CCC=C1c2ccccc2C(C)(C)c2ccccc21	AS120	12.59	inhibitor, partial curve
CN(C)CCC=C1c2ccccc2C(C)(C)c2ccccc21	CP211	10.69	inhibitor, single point
CN(C)CCC=C1c2ccccc2C(C)(C)c2ccccc21	PC15	10	inhibitor, single point
CN(C)CCC=C1c2ccccc2C(C)(C)c2ccccc21	CP252	10	inhibitor, single point
CN(C)CCC=C1c2ccccc2C(C)(C)c2ccccc21	CP269	13.46	inhibitor, single point
CN(C)CCC=C1c2ccccc2C(C)(C)c2ccccc21	CP194	9.528	inhibitor, single point
CN(C)CCC=C1c2ccccc2C(C)(C)c2ccccc21	ECU	17.78	inhibitor, single point
CN(C)CCC=C1c2ccccc2C(C)(C)c2ccccc21	TAB109	11.22	inhibitor, single point
C/C=C1/NN(CCCN2CCN(c3cccc(Cl)c3)CC2)C(=O)N1CCOc1ccccc1	TAB165	12.59	inhibitor, single point
C/C=C1/NN(CCCN2CCN(c3cccc(Cl)c3)CC2)C(=O)N1CCOc1ccccc1	DIV30	7.569	inhibitor, partial curve, poor fit
C/C=C1/NN(CCCN2CCN(c3cccc(Cl)c3)CC2)C(=O)N1CCOc1ccccc1	ICS	11.22	inhibitor, single point
C/C=C1/NN(CCCN2CCN(c3cccc(Cl)c3)CC2)C(=O)N1CCOc1ccccc1	CP335	19.01	inhibitor, single point
C/C=C1/NN(CCCN2CCN(c3cccc(Cl)c3)CC2)C(=O)N1CCOc1ccccc1	CP237	11.22	inhibitor, single point
C/C=C1/NN(CCCN2CCN(c3cccc(Cl)c3)CC2)C(=O)N1CCOc1ccccc1	DIV14	6.746	inhibitor, partial curve
C/C=C1/NN(CCCN2CCN(c3cccc(Cl)c3)CC2)C(=O)N1CCOc1ccccc1	CP297	16.94	inhibitor, single point
C/C=C1/NN(CCCN2CCN(c3cccc(Cl)c3)CC2)C(=O)N1CCOc1ccccc1	CP191	17.78	inhibitor, single point

The last 4 entries again:

- C/C=C1/NN(CCCN2CCN(c3cccc(Cl)c3)CC2)C(=O)N1CCOc1ccccc1 [CP237] : Potency 11.22 µM (inhibitor, single point)
- C/C=C1/NN(CCCN2CCN(c3cccc(Cl)c3)CC2)C(=O)N1CCOc1ccccc1 [DIV14] : Potency 6.746 µM (inhibitor, partial curve)
- C/C=C1/NN(CCCN2CCN(c3cccc(Cl)c3)CC2)C(=O)N1CCOc1ccccc1 [CP297] : Potency 16.94 µM (inhibitor, single point)
- C/C=C1/NN(CCCN2CCN(c3cccc(Cl)c3)CC2)C(=O)N1CCOc1ccccc1 [CP191] : Potency 17.78 µM (inhibitor, single point)